According to patent US20260132219A1:

Key:
[1] = target: human HER3 polypeptide (Sino Biological Inc.) (human); test: ELISA, human HER3 polypeptide coated
[2] = target: human HER3 polypeptide (Sino Biological Inc.) (human); test: ELISA, target polypeptide coated

Binder | binding [1] | binding [2]
10D1F.FcA (anti-HER3 clone 10D1_c89 IgG1) (antibody, V domains shown) VH: QVQLQESGPGLVKPSQTLSLTCTVSGYSITSGYSWHWIRQHPGKGLEWIGSIRYSGGTDYNPSLKSLVTISADTSKNQFSLKLSSVTAADTAVYYCARMTTAPWYPFDYWGQGTTVTVSS VL: DIQMTQSPSSVSASVGDRVTITCKASQIVGSNVAWYQQKPGKAPEPLIYSASYLYSGVPSRFSGSGSGTDFTLTISSLQPEDFATYYCQQYSSHPLTFGQGTKLEIKR | binds | binds
anti-HER3 clone 10D1_c91 IgG1 (antibody, V domains shown) VH: QVQLQESGPGLVKPSQTLSLTCTVSGYYITSGYSWHWIRQHPGKGLEWIGSIRYSGGTDYNPSLKSLATISADTSKNQFSLKLSSVTAADTAVYYCARMTTAPWYPFDYWGQGTAVTVSS VL: DIQMTQSPSSVSASVGDRVTITCKASQIVGSNVAWYQQKPGKAPMPLIYSASYGYSGVPSRFSGSGSGTDFTLTISSLQPEDFATYYCQQYSSHPLTFGQGTKLEIKR | binds | –
anti-HER3 clone 10D1_c75 IgG1 (antibody, V domains shown) VH: DVQLQEWGAGLLKPSETLSLTCAVTGYSITSGYSWHWIRQFPGNGLEWIGSIHYSGGTNYNPTLKSRITISRDTSKNQFSLKLSSVTAADTAVYFCARMTTAPRYPFDYWGQGTLVTVSS VL: DIVMTQSPSSLSASVGDLVTITCKASQIVGSNVAWYQMKPGKSPKPLIYSASYLYFGVPSRFSGSGSGTDFTLTISSLQPEDVAEYFCQQYSSHPLTFGPGTKVEIKR | binds | –
anti-HER3 clone 10D1_c93 IgG1 (antibody, V domains shown) VH: DVQLQEWGAGLLKPSETLSLTCAVTGYSITSGYSWHWIRQFPGNGLEWIGSIHYSGGTNYNPSLKSRITISRDTSKNQFSLRLSSVTAADTAVYFCARMTTAPRYPFDYWGQGTLVTVSS VL: DIVMTQSPSSLSASVGDRVTITCKASQIVGSNVAWYQQKPGKSPKPLIYSASYLYSDVPSRFSGSGSGTDFTMTISSLQPEDVATYYCQQYSSHPLTFGPGTKVEIKR | binds | –
anti-HER3 clone 10D1_c77 IgG1 (antibody, V domains shown) VH: DVQLQEWGAGLLKPSETLSLTCAVTGYSITSGYSWHWIRQFPGNGLEWIGSIHYSGGTNYNPSLKSRITISRDTSKNQFSLKLSSVTAADTAVYFCARMTTAPRYPFDYWGQGTLVTVSS VL: VIVMTQSPSSLSASVGDRVTITCKASQIVGPNVAWYQQKPGKSPKPLIYSASYGYSDVPSRFSGSGSGTDFTLTISSLQPEDVAEYFCQQYSTHPLTFGPGTKVEIKR | binds | –
anti-HER3 clone 10D1_11B IgG1 (antibody, V domains shown) VH: DVQLQEWGAGLLKPSETLSLTCAVYGYSITSGYSWHWIRQPPGKGLEWIGSIHYSGGTNYNPSLKSRVTISRDTSKNQFSLKLSSVTAADTAVYYCARMTTAPRYPFDYWGQGTLVTVSS VL: DIVMTQSPSSLSASVGDRVTITCKASQIVGSNVAWYQQKPGKSPKPLIYSASYGYSDVPSRFSGSGSGTDFTLTISSLRPEDVATYYCQQYSSHPLTFGPGTKVEIKR | binds | –
anti-HER3 clone 10D1_c85o2 IgG1 (antibody, V domains shown) VH: DVQLQEWGAGLLKPSETLSLTCAVTGYSITSGYSWHWIRQFPGKGLEWIGSIRYSGGTNYNPSLKSRITISRDTSKNQFSLKLGSVTAADTAVYFCARGTTAPRYPFDYWGQGTLVTVSS VL: DIVMTQSPSSLSASVGDRVTITCKASQIVGSNVAWYQQKPGKSPKPLIYSARYQYSGVPFRFSGSGSGTDFTLTISSLQPEDVATYYCQQYSSHPLTFGPGTKVEIKR | binds | –

Now from value to binder:

binding [1] | binding [2] | Binder
binds | – | anti-HER3 clone 10D1_c90 IgG1 (antibody, V domains shown) VH: QVQLQESGPGLVKPSQTLFLTCTVSGYSITSGYSWHWIRQHPGKGLEWIGSIRYSGGTDYNPSLKSLVTISVDTSKNQFSLKLSSVTAADTAVYYCARMTTAPWYPFDYWGQGTTVTVSS VL: DIQMTQSPSSVSASVGDRVTFTCKASQIVGSNVAWYQQKPGKAPEPLIYSASYLYSSVPSRFSGSGSGTEFTMTISSLEPEDFATYYCQQYTTHPLTFGPGTKVEIKR
binds | – | anti-HER3 clone 10D1_c85o1 IgG1 (antibody, V domains shown) VH: DVQLQEWGAGLLKPSETLSLTCAVTGYSITSGYSWHWIRQFPGKGLEWIGSIRYSGGTNYNPSLKSRITISRDTSKNQFSLKLGSVTAADTAVYFCARETTAPRYPFDYWGQGTLVTVSS VL: DIVMTQSPSSLSASVGDRVTITCKASQIVGSNVAWYQQKPGKSPKPLIYSARYQYSGVPFRFSGSGSGTDFTLTISSLQPEDVATYYCQQYSSHPLTFGPGTKVEIKR
binds | – | anti-HER3 clone 10D1_c76 IgG1 (antibody, V domains shown) VH: DVQLQEWGAGLLKPSETLSLTCAVTGYSITSGYSWHWIRQFPGNGLEWIGSIHYSGGTNYNPSLKSRITISRDTSKNQFSLKLSSVTAADTAVYFCARMTTAPRYPFDYWGQGTLVTVSS VL: DIVMTQSPSSLSASGGDRVTITCKASQIVGYNVAWYQQKPGKSPKPLIYSASYLYSDVPSRFSASGSGTDFTLTISSLQPEDVAEYFCQQYSSHPLTFGPGTKVEIKR
binds | – | anti-HER3 clone 10D1_c87 IgG1 (antibody, V domains shown) VH: DVQLQEWGAGLLKPSETLSLTCAVTGYSITSGYSWHWIRQFPGNGLEWIGSIHYSGGTNYNPSLKSRITISRDTSKNQFSLRLSSVTAADTAVYFCARMTTAPRYPFDYWGQGTLVTVSS VL: DIVMTQSPSSLSASVGDRVTITCKASQIVGSNVAWYQQMPGKSPEPLIYSASYLYSDVPSRFSGSGSGTDFTMTISSLQPEDVATYYCQQYSSHPLTFGPGTKVEIKR

These are yes or no findings as the source states them, for the method shown. Binding calls can cover weak binding; strength is not graded here.
